Results as given in the M2OR odorant receptor database.
The list shows a part of the results, in another mix than the full data. Calls are pooled over several reports, among them a noisy single-well screen. This is one part of the list.

Tests used:
Conditions in all cases: stereoisomer not certain
OR5T1 (Homo sapiens) = biological target: T1, OR5T1 (Homo sapiens) (UniProt Q8NG75)
T1 sequence (whole entry): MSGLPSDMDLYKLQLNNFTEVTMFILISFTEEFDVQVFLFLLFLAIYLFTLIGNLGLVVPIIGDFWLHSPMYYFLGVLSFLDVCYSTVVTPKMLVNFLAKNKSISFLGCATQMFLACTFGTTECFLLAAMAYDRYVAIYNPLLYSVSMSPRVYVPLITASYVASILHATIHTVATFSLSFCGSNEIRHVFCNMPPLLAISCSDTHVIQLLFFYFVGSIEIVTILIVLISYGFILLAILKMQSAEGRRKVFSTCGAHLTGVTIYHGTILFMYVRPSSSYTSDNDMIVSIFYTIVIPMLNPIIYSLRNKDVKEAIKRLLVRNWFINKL
In short: (§1)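 Transient luciferase assays in mammalian cell lines were common, though methods varied by source. The values come from published papers and their supplementary material, with extra details from the original authors when needed. Responsive refers to a measured signal the original authors judged statistically different from baseline, and non-responsive (inactive) to the remainder.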

OR5T1 = tested on: T2, OR5T1
T2 sequence (whole entry): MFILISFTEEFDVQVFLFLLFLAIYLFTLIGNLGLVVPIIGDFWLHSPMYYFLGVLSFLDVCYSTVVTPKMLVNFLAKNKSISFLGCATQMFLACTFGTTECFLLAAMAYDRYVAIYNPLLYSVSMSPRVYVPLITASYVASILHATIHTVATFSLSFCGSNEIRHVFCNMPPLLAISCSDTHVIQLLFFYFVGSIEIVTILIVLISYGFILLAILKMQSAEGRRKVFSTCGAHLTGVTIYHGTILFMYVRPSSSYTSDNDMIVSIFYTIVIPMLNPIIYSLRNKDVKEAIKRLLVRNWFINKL
In short: as §1

OR5T2 [1] = tested on: T3, OR5T2
T3 sequence (whole entry): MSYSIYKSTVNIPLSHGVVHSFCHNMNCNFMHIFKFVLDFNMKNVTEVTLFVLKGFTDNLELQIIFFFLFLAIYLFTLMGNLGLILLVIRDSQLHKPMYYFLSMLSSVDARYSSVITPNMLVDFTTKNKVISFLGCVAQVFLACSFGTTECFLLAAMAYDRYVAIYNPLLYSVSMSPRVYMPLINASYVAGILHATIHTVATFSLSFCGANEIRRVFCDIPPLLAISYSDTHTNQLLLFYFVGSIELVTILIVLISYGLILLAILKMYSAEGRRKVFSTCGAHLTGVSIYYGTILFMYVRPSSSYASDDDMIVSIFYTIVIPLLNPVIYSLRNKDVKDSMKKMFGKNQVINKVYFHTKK
In short: as §1

OR5T2 [2] = tested on: T4, OR5T2; remark: listed apart in the source
T4 sequence (whole entry): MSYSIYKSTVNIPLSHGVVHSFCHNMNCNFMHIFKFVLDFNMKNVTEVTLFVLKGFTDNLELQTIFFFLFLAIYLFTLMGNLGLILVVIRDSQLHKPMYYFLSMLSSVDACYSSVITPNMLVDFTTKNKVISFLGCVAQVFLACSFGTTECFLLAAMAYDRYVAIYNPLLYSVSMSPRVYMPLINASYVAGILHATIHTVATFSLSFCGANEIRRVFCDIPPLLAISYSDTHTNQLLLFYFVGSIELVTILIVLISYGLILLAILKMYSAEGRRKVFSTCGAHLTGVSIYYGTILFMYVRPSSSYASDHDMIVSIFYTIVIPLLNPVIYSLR
In short: as §1

OR5T3 = tested on: T5, OR5T3
T5 sequence (whole entry): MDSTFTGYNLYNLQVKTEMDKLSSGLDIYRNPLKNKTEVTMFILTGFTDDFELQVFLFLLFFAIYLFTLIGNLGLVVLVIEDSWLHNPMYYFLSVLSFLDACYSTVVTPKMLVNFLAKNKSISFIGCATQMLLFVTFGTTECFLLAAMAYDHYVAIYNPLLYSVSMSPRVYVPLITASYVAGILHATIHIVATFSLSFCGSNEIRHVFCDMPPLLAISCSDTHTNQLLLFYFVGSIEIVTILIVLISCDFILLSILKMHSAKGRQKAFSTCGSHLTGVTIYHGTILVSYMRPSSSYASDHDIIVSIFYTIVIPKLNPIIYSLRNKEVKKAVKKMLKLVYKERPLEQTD
In short: as §1

OR5V1 (Homo sapiens) = biological target: T6, OR5V1 (Homo sapiens) (UniProt Q9UGF6)
T6 sequence (whole entry): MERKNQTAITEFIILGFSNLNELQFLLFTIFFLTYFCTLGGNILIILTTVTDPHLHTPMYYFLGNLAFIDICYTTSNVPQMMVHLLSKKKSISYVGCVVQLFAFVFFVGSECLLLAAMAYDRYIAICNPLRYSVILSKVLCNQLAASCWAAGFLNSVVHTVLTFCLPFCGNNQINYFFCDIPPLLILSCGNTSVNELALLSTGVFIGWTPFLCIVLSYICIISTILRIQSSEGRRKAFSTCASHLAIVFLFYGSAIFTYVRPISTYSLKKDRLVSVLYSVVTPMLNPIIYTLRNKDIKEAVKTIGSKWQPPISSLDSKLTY
In short: as §1

OR5W2 = tested on: T7, OR5W2
T7 sequence (whole entry): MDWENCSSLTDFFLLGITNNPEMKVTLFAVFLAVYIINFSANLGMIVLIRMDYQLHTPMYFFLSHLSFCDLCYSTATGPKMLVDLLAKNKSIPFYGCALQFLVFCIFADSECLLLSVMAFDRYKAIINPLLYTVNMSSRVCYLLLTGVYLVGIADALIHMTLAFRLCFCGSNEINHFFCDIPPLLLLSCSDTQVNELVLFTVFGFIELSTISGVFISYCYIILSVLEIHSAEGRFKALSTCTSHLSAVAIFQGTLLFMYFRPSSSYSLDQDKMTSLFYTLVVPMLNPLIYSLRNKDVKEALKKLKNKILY
In short: as §1

OR6A2 (Homo sapiens) = biological target: T8, OR6A2 (Homo sapiens) (UniProt O95222)
T8 sequence (whole entry): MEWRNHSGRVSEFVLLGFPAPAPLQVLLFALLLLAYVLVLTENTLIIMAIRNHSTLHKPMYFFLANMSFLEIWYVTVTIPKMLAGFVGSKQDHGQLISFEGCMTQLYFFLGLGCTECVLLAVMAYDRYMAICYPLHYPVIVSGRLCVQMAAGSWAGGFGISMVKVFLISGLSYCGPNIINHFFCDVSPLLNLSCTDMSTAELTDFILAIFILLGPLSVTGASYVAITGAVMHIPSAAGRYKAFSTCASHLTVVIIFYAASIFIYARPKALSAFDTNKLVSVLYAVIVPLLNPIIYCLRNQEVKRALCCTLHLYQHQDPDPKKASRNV
In short: as §1

OR6B1 = tested on: T9, OR6B1
T9 sequence (whole entry): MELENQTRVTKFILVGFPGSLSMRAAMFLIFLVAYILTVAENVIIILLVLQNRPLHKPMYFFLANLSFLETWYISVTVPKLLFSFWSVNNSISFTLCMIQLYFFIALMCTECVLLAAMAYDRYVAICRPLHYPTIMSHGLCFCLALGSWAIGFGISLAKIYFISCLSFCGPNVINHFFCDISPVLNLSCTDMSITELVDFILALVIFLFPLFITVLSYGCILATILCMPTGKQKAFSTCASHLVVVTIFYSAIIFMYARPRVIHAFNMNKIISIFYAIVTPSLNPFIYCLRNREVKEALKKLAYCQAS
In short: as §1

OR6B2 = tested on: T10, OR6B2
T10 sequence (whole entry): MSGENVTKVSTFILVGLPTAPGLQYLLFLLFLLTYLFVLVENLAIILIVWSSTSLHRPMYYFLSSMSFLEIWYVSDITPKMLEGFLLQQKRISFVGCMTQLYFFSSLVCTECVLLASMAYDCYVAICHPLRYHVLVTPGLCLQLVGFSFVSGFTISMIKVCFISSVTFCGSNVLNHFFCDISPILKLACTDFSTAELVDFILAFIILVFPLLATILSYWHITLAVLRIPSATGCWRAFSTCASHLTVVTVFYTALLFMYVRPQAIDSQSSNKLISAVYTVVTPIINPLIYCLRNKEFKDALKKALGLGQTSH
In short: as §1

OR6B3 = tested on: T11, OR6B3
T11 sequence (whole entry): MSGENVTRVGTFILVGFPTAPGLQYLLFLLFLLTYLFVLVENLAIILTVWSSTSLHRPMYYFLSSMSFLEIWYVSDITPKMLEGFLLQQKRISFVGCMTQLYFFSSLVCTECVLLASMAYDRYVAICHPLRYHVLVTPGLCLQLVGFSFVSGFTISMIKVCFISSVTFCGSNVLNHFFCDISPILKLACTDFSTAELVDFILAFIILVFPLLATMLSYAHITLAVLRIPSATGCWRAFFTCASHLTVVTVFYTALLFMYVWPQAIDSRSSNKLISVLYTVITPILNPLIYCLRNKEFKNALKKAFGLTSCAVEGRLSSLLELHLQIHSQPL
In short: as §1

OR6C1 = tested on: T12, OR6C1
T12 sequence (whole entry): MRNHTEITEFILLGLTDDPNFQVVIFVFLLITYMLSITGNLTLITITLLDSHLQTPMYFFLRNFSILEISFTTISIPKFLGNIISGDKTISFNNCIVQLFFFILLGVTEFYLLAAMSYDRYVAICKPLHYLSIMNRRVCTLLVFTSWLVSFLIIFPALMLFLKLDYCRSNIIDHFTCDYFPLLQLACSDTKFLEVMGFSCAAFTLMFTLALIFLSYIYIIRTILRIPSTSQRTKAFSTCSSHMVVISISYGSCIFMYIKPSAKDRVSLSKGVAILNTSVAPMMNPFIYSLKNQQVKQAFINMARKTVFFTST
In short: as §1

OR6C2 (Homo sapiens) = biological target: T13, OR6C2 (Homo sapiens) (UniProt Q9NZP2)
T13 sequence (whole entry): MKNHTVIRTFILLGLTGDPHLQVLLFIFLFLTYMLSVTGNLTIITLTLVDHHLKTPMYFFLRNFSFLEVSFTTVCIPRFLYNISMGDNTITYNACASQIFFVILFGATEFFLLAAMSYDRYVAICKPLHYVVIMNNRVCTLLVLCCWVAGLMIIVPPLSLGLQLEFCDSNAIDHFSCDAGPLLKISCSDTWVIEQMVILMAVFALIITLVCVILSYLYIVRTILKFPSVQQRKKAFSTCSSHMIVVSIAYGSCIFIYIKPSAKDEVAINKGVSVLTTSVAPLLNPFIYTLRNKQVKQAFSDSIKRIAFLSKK
In short: as §1

OR6C3 (Homo sapiens) = biological target: T14, OR6C3 (Homo sapiens) (UniProt Q9NZP0)
T14 sequence (whole entry): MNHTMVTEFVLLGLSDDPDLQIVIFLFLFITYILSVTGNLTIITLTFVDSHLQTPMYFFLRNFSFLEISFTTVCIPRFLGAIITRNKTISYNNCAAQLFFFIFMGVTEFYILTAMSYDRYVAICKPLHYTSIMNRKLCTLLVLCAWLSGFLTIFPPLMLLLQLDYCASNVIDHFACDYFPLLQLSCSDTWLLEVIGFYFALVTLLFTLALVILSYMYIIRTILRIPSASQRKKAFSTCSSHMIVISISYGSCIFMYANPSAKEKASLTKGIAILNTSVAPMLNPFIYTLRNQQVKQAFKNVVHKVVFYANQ
In short: as §1

Measured: odorant receptor agonist call;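 also: active if original authors judged signal statistically different from baseline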

COc1cc(C=O)ccc1O
inactive: all assays above

CC1=CCC(C(C)(C)O)CC1 (stereo not given)
inactive: all assays above

C=CC(C)(O)CCC=C(C)C (stereo not given)
inactive: all assays above

CCCCCOC(C)=O
inactive: all assays above

CC(=O)OC(C)(C)C1CC=C(C)CC1 (stereo not given)
inactive: all assays above

CCC=CCCO
inactive: all assays above

CC12CCC(CC1)C(C)(C)O2
inactive: all assays above

CCC1(O)C2(C)CCC(C2)C1(C)C (stereo not given)
inactive: all assays above

C=CCc1ccc(OC(C)=O)c(OC)c1
inactive: all assays above

CC(=O)c1ccccc1
inactive: all assays above
